# In patent US12018068B2, “Anti-O1 antibodies and uses thereof” (priority 2016, dated 2024):
# B1: KPE33: human anti-K. pneumoniae O1 antigen antibody, VH SEQ ID NO:8, VL SEQ ID NO:9, isolated as IgG2 from donor #262 (antibody, V domains shown)
# VH: EVQLVESGGALVQPGGSLRLSCAVSGFIFDDYAIHWVRRAPGKGLEWVSGIAWKSGATNYADSVKGRFAISRDNSKKSMYLQMNSLGTEDTALYYCTRRRASGDDTFYYFDYWGQGTLVTVSS
# VL: EIVLTQSPATLSLSPGERATLSCRASQNVNTNLAWYQQRPGQSPRLLIYDASTRAAGLPARFSGSGSGTDFTLTISSLEPEDFAVYYCQQCTNWRYTFGQGTKLEIK
# modifications: KPE33 VH Amino Acid Sequence; KPE33 VL Amino Acid Sequence
# B2: 54H7: mouse hybridoma anti-O1 antigen antibody (Ms IgG3), VH SEQ ID NO:47, VL SEQ ID NO:48 (antibody, V domains shown)
# VH: QVHLQQPGSELVRPGASVTLSCKASGYTFTNYWMQWVKQRPGQGLEWIGNIYPGSGNTNYDEKFRSKATLTVDTSSSTAYMHLTSLTSEDSAVYYCTRNWNFDYWGQGTTLTVSS
# VL: DIQMTQSPSSLSASLGERVSLTCRASQDIGSSLNWLQQEPDGTIKRLIYATSSLDSGVPKRFSGSRSGSEYSLTISSLEAEDFVDYYCLQHTDSPYTFGGGTKLELK
# modifications: 54H7 VH; 54H7 VL Amino Acid Sequence
# Tested on: Kp1131115 wild type and Kp1131115ΔwbbYZ strain
# Experiment: FACS binding to Kp1131115 wild type and Kp1131115ΔwbbYZ
# Design: species or system Klebsiella pneumoniae
# Details: concluded from wbbYZ knockout
# Source text: Klebsiella pneumoniae wbbYZ gene locus encodes D-Galactan II domain in LPS structure, which defines O1 serotype over O2.
row,Molecule,domain of O1 LPS antigen bound
1,B1,bind to the D-Galactan II domain
2,B2,bind to the D-Galactan II domain
